Percent effect of library compounds

Chains of the proteins cited; added tags and fusions are not shown. Residues count along the entry.
UniProt A4I591, 1-473: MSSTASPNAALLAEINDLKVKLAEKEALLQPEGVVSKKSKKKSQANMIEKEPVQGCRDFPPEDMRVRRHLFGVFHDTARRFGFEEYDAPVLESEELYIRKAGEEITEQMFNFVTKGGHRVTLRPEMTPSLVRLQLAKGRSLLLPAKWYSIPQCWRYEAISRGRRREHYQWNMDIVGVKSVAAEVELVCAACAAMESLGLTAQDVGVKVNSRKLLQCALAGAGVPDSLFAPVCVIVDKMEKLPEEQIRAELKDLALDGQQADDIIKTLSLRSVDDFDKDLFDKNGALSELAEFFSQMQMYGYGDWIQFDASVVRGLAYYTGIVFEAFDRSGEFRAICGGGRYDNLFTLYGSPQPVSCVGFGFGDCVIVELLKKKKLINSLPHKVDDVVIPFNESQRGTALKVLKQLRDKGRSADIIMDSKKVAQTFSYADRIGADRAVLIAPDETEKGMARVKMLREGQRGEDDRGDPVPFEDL
UniProt P9WNZ1, whole entry: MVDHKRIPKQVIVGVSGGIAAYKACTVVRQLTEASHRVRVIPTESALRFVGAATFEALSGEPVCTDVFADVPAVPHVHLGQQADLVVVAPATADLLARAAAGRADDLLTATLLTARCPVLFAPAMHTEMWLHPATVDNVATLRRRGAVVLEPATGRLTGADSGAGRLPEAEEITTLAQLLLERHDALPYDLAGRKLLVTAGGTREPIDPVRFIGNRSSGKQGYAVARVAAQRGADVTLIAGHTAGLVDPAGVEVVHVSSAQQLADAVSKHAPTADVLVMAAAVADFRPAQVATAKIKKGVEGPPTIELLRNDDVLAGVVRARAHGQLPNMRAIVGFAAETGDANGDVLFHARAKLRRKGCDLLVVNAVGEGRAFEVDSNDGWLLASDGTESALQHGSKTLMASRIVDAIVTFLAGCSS
UniProt Q8IDJ8, 1-583: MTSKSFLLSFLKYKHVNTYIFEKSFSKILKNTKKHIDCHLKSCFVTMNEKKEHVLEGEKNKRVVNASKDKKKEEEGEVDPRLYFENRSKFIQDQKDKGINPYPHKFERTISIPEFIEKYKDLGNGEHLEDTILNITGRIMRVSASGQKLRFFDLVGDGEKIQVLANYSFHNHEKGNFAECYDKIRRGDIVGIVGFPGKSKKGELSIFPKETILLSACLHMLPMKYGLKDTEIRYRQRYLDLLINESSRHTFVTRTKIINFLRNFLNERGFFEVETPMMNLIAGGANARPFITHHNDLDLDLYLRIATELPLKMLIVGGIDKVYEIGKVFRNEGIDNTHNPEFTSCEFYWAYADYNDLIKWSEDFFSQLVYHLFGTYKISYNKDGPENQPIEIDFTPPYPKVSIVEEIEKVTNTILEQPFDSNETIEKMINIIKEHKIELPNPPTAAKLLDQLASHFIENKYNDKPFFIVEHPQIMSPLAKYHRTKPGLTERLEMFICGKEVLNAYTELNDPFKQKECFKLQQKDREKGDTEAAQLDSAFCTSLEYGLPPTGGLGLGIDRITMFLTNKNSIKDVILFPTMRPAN
UniProt P9WFT3, whole entry: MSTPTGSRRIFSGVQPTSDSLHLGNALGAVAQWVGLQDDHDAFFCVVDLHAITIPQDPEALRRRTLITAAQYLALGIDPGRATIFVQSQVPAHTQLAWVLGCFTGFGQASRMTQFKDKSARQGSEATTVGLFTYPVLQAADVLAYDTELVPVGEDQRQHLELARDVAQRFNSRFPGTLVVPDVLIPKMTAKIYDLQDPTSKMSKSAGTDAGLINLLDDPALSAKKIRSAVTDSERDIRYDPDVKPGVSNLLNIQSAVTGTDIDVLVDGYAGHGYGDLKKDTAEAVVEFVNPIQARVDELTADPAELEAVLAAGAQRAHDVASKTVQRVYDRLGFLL

The filed quantity is “Percent Effect” (%). The record does not define 0% and 100%; most values in the screen are far below 50% and negative numbers occur (in some assays of this library far below -100). Compounds were drawn at random from those tested, without regard to their results.

LiHisRS: 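Enzyme assay of histidyl-tRNA synthetase; the read-out is not stated. Target: Histidine-tRNA ligase, Leishmania infantum (UniProt A4I591). Concentration: 30 µM. The record gives no direction; compounds that gave an IC50 in retests scored well above the rest, so higher reads as stronger inhibition. The assay is labelled LdHisRS but filed under L. infantum. Of about 69,000 compounds tested this way, about 410 (0.6%) reached 50% or more in at least one test.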
CoaBC: 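Enzyme assay of CoaBC with a phosphate dye (Biomol Green) read at 650 nm. Target: Coenzyme A biosynthesis protein CoaBC, Mycobacterium tuberculosis (UniProt P9WNZ1). Concentration: 30 µM. Direction is inferred from only a few compounds that gave an IC50; most scored high, so higher reads as stronger inhibition. Most strong results did not repeat in a second test. Of about 67,000 compounds tested this way, about 40 (0.06%) reached 50% or more in at least one test.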
PfKRS1: 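Enzyme assay of the cytosolic lysyl-tRNA synthetase in 384-well plates, read by luminescence. Target: Lysine-tRNA ligase, Plasmodium falciparum 3D7 (UniProt Q8IDJ8). Concentration: 30 µM. Direction is inferred from only a few compounds that gave an IC50; most scored high, so higher reads as stronger inhibition. About 69,000 compounds were tested under these conditions; 0.071% (about 49) showed 50% or more at least once.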
MtTrpRS: 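Enzyme assay of tryptophanyl-tRNA synthetase; the read-out is not stated. Target: Tryptophan-tRNA ligase, Mycobacterium tuberculosis (UniProt P9WFT3). Compounds at 10 µM. Higher most likely means stronger inhibition; the record gives no direction and few retests gave an IC50. About 65,000 compounds were tested under these conditions; 0.098% (about 64) showed 50% or more at least once.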

SMILES: Cc1cc(N2CCC(NC(C)Cc3ccsc3)CC2)nc(C)n1 (stereo not given)
LiHisRS: 10.75
CoaBC: 2.703
PfKRS1: 0.8705
MtTrpRS: 3.59

SMILES: COc1ccc(Oc2ncccc2NC(=O)N2CCOC(C)C2)cc1 (stereo not given)
LiHisRS: 16
CoaBC: -11.98
PfKRS1: 9.446
MtTrpRS: -5.126

SMILES: COCCN1C[C@@H]2CN(c3ncccn3)C[C@@H]2C1=O
LiHisRS: 1.923
CoaBC: 5.59
PfKRS1: 4.42
MtTrpRS: -3.002

SMILES: CC(=O)N1CCC(N2CCN3C(=O)N(c4ccccc4)C[C@H]3C2)CC1
LiHisRS: 16.67
CoaBC: -0.2257
PfKRS1: 2.556
MtTrpRS: -1.431

SMILES: Cc1ccccc1C(O)c1ccncc1 (stereo not given)
LiHisRS: 19.54
CoaBC: -1.342
PfKRS1: -1.258
MtTrpRS: 4.976

SMILES: CCN1Cc2c(C(=O)NC)ncn2-c2ccccc2S1(=O)=O
LiHisRS: 0
CoaBC: 0.7614
PfKRS1: -3.785
MtTrpRS: -1.893

SMILES: Cn1ccnc1CN1CCC(CNS(=O)(=O)c2cccnc2)C1 (stereo not given)
LiHisRS: -3.03
CoaBC: -2.621
PfKRS1: -1.856
MtTrpRS: 0.4036

SMILES: CN(Cc1ccc(F)cc1)S(=O)(=O)N1CCOCC1
LiHisRS: 18.87
CoaBC: 14.95
PfKRS1: -2.504
MtTrpRS: -0.4946

SMILES: CN(Cc1cc(C(C)(C)C)n[nH]1)C(=O)c1ccc2nccn2c1
LiHisRS: 20.41
CoaBC: 6.116
PfKRS1: 4.56
MtTrpRS: 0.1468

SMILES: Cc1cc(C)c(S(=O)(=O)Nc2ccccc2CC(F)(F)F)cc1C(=O)O
LiHisRS: 17.95
CoaBC: 4.628
PfKRS1: 2.766
MtTrpRS: -4.376

SMILES: COc1ccccc1CNC(=O)CN(C)C(C)c1nccs1 (stereo not given)
LiHisRS: 25.3
CoaBC: 0.8861
PfKRS1: 9.708
MtTrpRS: 0.5439

SMILES: Cc1n[nH]c(=O)c2c(NC(=O)CN3CCOCC3C)oc(C)c12 (stereo not given)
LiHisRS: 3.774
CoaBC: 4.842
PfKRS1: -6.345
MtTrpRS: -0.4946

SMILES: CS(=O)(=O)NCC1CCCN(Cc2ccc(F)c3cccnc23)C1 (stereo not given)
LiHisRS: 17.92
CoaBC: -1.818
PfKRS1: 1.926
MtTrpRS: -1.906

SMILES: CN1CCN(C(=O)Cc2ccc(S(=O)(=O)C(F)F)cc2)CC1
LiHisRS: 12.82
CoaBC: 0.8403
PfKRS1: -1.122
MtTrpRS: -4.288

SMILES: Cc1noc(C)c1CN1C[C@@H]2COC[C@@H](CC(=O)N3CCCO3)[C@@H]2C1
LiHisRS: 20
CoaBC: 3.25
PfKRS1: 1.97
MtTrpRS: 2.658

SMILES: c1ccc(-c2cc(CNCCN3CCCC3)c3nnnn3c2)cc1
LiHisRS: 32.63
CoaBC: 3.163
PfKRS1: 0.6528
MtTrpRS: -20.35

SMILES: CCN(CC)C(=O)[C@@H]1C[C@@H](N)CN1c1nc(N(C)C)nc(C)c1C
LiHisRS: 17.17
CoaBC: 2.657
PfKRS1: 5.059
MtTrpRS: 0.1818

SMILES: Cc1ccncc1-n1cc(CCO)cn1
LiHisRS: 30.97
CoaBC: 9.554
PfKRS1: 1.896
MtTrpRS: -0.7538

SMILES: NC(=O)c1ccc(N2CCN(CCCc3cn[nH]c3)CC2)cc1
LiHisRS: 20
CoaBC: 3.38
PfKRS1: 6.244
MtTrpRS: 0.6256

SMILES: COc1ccc(C(O)CNC(=O)NCc2nc(C)cs2)cc1 (stereo not given)
LiHisRS: 18.18
CoaBC: 4.082
PfKRS1: 1.463
MtTrpRS: -8.678

SMILES: CN(CC(=O)NC(C)(C#N)C1CC1)Cc1nc2ccccc2n1C (stereo not given)
LiHisRS: 13.79
CoaBC: -3.212
PfKRS1: -1.415
MtTrpRS: -0.5236

SMILES: Cn1c(C(=O)N2CC[C@@]3(O)CCCC[C@H]3C2)cc2ccccc21
LiHisRS: 10.53
CoaBC: -1.768
PfKRS1: 4.849
MtTrpRS: 2.171

SMILES: CC(c1ccccc1Cl)N(C)Cc1nc2c(cnn2C)c(=O)[nH]1 (stereo not given)
LiHisRS: 18.35
CoaBC: 7.597
PfKRS1: -0.5689
MtTrpRS: -2.903

SMILES: CCS(=O)(=O)N1CCC2(CCC(N3CCCC3)c3ccccc32)CC1 (stereo not given)
LiHisRS: 15.38
PfKRS1: 2.536
MtTrpRS: 5.911

SMILES: CN(Cc1cccnc1)C[C@@H]1OC[C@H]2CN(C(=O)C3CC3)CC[C@H]21
LiHisRS: 11.84
CoaBC: 2.336
PfKRS1: 2.656
MtTrpRS: -2.294

SMILES: CN(C)C1COC2(CCN(Cc3nccs3)CC2)C1 (stereo not given)
LiHisRS: 2.778
CoaBC: -0.3699
PfKRS1: 3.585
MtTrpRS: -1.507

SMILES: NCCc1nc(N(Cc2nccs2)C2CC2)c2ccccc2n1
LiHisRS: 12.9
CoaBC: 0.2457
PfKRS1: 6.189
MtTrpRS: -3.59

SMILES: COc1cc(C2CC(=O)Oc3cc(C)[nH]c(=O)c32)ccc1OCC(=O)O (stereo not given)
LiHisRS: 12.82
CoaBC: 5.089
PfKRS1: 0.6751
MtTrpRS: 5.948

Source: ChEMBL document CHEMBL3988442, “University of Dundee, Small-Polar-MMV Screening Library” (2021).